For this assay, the target named is T1, USH1G protein SANS (scaffold protein containing ankyrin repeats and SAM domain) (UniProt Q495M9).
T1 sequence: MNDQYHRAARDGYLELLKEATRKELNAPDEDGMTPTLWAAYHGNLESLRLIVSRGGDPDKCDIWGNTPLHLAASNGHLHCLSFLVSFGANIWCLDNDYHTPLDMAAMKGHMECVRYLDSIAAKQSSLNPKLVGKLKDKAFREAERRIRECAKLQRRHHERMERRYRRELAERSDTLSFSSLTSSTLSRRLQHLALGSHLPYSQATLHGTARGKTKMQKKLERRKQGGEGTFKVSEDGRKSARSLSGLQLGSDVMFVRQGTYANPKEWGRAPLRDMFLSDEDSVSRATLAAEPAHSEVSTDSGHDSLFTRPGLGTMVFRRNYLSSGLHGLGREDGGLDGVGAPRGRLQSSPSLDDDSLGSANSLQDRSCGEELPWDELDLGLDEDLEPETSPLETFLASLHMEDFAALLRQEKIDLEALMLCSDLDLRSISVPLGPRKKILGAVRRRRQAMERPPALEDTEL
The assay can be described thus: co-IP; co-immunoprecipitation; bait and source not told.

Protein sequences, listed by entry. Tags and fused reporters are not part of them.
UniProt P08100: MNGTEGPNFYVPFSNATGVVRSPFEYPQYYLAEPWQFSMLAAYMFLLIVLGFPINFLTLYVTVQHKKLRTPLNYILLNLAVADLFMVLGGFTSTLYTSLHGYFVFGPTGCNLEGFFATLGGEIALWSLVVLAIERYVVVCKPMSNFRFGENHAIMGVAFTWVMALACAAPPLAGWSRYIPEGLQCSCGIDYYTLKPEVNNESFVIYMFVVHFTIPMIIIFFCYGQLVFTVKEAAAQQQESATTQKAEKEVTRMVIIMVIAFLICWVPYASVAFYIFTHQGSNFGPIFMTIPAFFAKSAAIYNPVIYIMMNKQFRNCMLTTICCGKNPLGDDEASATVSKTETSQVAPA

Results are given in words; binding and its absence hold for the method and conditions named. Binding seen in cells or lysates may run through a third protein. Some entries that bind do so weakly or less than the wild type.

In the case of “opsin (from UniProt P08100 1-348) (receptor)”, the binding result is listed as “binds”.

The values above are taken from PMC3555845.
